# Measured values as given in the supplement of paper PMC10849652.
# By UniProt entry, the sequences of proteins in these tests, tags left out. Where a name states a change or a piece, a line headed by the entry shows the natural chain unless it says otherwise.
# UniProt Q15907: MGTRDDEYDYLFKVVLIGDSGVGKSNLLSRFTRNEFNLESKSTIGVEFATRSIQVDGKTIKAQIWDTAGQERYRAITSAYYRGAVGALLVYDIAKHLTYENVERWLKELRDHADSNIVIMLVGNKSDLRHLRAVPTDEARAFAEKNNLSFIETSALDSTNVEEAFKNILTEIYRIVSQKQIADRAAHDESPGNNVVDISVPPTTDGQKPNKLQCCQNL
# UniProt P51151: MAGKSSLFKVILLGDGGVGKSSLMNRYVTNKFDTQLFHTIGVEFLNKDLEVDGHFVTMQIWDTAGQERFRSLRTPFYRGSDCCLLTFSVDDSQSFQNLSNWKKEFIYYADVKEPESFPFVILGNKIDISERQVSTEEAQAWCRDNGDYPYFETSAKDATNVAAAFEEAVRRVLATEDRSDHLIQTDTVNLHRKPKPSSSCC
# UniProt Q9P2N5: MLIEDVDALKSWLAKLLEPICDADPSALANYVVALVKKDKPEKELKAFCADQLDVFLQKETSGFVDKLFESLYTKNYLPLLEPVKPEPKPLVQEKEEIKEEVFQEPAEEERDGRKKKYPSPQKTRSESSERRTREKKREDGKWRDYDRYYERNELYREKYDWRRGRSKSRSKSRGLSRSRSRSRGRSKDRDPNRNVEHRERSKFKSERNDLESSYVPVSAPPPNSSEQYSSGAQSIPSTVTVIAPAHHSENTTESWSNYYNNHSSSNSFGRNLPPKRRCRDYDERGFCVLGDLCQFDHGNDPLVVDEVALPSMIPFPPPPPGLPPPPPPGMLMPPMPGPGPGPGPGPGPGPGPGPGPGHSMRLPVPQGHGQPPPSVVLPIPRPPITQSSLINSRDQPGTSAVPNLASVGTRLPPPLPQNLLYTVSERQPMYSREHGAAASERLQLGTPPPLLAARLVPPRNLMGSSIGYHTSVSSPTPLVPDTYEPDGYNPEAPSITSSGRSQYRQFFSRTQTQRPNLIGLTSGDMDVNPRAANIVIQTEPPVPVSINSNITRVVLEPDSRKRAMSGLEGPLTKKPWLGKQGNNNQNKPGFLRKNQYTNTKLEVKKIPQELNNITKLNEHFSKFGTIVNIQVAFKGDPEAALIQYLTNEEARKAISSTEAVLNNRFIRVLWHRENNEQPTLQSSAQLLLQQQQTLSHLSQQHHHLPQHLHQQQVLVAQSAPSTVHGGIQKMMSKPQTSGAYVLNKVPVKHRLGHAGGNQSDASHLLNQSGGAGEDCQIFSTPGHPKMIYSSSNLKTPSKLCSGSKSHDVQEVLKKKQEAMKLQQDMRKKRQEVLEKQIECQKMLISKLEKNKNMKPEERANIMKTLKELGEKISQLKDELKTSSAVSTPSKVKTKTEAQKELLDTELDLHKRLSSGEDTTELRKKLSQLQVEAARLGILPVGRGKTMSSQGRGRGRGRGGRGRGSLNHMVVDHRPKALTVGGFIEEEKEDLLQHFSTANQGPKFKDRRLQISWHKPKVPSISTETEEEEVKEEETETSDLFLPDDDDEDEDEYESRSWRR
# UniProt Q15291, whole entry, looked up: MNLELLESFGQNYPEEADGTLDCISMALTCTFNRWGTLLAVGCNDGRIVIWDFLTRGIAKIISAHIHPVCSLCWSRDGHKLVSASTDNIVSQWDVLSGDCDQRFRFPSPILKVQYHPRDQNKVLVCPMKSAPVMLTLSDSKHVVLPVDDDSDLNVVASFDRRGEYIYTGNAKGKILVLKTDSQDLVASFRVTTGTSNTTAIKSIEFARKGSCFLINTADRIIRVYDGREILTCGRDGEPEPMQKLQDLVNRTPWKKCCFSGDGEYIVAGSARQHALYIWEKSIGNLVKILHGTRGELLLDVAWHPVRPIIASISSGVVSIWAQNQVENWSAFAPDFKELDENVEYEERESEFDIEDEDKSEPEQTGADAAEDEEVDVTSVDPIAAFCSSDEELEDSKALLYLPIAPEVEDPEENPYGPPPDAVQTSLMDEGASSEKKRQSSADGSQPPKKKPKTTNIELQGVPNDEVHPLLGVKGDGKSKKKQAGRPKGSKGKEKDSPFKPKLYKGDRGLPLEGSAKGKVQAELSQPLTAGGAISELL
# UniProt Q92696: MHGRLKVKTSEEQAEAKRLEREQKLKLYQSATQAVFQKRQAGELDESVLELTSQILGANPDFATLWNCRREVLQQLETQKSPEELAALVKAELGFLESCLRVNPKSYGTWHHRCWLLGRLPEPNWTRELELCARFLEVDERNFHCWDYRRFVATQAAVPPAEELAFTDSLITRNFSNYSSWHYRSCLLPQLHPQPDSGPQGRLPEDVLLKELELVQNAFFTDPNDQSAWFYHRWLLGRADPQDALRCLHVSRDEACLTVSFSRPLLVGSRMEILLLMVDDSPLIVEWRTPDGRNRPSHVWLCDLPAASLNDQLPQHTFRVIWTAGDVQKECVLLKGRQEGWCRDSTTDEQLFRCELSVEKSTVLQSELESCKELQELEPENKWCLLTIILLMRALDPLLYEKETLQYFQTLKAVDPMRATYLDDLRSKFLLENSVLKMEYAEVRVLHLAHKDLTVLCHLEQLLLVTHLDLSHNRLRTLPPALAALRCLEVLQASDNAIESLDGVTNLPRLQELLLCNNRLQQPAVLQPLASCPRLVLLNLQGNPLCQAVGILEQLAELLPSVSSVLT
# UniProt P51149, whole entry, looked up: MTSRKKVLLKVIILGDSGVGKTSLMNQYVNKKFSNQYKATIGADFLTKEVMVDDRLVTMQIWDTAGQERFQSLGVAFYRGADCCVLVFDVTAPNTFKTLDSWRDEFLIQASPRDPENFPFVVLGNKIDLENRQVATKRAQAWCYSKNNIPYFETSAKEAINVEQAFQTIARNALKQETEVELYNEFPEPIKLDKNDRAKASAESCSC
# UniProt Q09028, whole entry, looked up: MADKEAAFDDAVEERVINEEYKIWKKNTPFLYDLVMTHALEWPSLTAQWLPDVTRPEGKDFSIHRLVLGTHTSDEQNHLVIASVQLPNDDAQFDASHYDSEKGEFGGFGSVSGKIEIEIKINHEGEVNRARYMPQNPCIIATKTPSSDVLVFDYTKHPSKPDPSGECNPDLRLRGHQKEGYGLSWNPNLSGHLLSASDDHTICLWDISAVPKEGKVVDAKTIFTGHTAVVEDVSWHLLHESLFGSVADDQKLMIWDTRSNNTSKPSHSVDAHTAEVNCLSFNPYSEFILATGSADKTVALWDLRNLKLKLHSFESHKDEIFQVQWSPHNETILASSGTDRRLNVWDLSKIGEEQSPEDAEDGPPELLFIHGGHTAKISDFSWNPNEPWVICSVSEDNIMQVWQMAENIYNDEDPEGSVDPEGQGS
# UniProt P61018: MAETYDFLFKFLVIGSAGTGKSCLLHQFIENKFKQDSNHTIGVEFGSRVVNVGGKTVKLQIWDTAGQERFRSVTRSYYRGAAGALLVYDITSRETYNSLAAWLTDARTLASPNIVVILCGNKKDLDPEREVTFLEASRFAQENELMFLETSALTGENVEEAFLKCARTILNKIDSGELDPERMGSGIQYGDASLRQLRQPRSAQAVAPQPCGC
# UniProt P20336: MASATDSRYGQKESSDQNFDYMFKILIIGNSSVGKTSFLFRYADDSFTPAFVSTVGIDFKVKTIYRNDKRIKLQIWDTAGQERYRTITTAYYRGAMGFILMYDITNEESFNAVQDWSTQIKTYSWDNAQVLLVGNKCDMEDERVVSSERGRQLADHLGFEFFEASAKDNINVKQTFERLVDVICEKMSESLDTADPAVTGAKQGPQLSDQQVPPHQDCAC
# UniProt Q16576, whole entry, looked up: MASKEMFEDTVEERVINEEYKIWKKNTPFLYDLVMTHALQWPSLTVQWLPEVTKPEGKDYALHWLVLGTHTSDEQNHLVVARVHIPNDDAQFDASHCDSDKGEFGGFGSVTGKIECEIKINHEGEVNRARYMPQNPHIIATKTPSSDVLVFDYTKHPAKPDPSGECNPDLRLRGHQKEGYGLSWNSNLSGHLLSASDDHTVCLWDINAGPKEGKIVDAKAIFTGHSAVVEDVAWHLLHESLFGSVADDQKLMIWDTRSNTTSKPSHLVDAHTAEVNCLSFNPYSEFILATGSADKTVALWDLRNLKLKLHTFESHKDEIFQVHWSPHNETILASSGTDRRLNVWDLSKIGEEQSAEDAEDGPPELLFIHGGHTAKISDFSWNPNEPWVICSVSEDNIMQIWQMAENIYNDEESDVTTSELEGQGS
# UniProt Q9Y3P9: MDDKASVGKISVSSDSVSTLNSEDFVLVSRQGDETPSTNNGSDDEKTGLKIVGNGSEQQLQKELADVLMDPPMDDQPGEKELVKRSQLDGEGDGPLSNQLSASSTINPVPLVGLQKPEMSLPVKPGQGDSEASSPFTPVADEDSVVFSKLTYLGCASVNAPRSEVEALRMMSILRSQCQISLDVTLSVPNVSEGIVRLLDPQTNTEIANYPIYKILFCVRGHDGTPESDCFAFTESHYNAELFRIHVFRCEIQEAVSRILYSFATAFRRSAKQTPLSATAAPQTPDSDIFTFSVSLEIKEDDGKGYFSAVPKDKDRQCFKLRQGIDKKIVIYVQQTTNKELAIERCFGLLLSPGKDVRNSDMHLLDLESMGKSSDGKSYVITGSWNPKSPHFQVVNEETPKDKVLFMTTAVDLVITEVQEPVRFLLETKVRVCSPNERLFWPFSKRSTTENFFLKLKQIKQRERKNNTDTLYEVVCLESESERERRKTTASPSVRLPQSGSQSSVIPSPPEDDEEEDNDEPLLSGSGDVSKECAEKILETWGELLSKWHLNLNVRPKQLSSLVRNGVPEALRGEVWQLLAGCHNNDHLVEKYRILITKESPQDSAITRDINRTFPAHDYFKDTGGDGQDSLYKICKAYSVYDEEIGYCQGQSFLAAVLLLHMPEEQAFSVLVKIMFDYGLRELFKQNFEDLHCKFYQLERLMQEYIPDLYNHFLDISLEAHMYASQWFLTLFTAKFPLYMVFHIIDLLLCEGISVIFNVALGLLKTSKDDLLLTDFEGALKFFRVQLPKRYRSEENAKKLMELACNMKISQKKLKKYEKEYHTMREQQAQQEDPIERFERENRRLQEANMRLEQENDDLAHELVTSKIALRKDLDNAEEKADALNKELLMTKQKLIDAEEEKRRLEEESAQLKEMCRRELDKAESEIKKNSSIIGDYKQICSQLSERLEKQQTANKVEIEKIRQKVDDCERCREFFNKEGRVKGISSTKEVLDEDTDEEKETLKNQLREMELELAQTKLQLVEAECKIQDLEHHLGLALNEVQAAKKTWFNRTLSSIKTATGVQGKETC
# UniProt P54725: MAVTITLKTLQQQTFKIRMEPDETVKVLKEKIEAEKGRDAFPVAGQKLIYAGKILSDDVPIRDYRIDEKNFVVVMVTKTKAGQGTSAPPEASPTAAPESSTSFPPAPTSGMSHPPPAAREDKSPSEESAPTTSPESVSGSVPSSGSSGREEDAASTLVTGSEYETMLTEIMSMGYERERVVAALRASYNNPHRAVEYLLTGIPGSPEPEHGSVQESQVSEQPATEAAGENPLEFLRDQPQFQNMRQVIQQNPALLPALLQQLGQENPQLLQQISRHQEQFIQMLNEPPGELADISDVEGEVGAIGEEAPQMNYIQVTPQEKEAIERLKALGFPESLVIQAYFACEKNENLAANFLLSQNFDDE
# UniProt Q96E17: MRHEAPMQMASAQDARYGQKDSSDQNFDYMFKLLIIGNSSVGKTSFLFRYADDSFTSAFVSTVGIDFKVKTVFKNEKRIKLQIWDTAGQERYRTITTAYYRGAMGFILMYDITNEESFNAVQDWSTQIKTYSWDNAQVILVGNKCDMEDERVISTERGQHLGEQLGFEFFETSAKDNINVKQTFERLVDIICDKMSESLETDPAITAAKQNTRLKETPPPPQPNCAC
# UniProt Q9ULC3: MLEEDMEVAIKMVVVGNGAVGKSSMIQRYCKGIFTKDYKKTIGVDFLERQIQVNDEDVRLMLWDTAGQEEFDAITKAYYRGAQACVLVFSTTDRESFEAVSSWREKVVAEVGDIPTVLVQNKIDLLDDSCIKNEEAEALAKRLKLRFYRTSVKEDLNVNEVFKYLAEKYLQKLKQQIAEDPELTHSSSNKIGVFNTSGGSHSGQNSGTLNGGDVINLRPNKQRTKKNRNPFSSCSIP
# UniProt Q06609, whole entry, looked up: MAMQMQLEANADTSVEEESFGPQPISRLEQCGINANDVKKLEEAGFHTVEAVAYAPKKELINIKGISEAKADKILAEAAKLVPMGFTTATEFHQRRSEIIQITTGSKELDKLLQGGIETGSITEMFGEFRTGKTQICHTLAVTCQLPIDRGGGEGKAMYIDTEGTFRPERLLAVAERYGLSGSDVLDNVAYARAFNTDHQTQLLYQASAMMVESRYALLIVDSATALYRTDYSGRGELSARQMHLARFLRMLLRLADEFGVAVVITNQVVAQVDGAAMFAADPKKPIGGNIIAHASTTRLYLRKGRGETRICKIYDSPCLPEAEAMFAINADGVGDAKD
# UniProt Q15286: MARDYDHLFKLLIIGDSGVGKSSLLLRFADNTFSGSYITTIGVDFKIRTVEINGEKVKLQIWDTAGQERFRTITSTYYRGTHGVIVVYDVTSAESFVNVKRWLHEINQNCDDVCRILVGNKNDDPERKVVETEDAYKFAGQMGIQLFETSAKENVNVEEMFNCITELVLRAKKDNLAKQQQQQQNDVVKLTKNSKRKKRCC
# The list shows a part of the results.
# Legend:
# Assay in all cases: log2 fold change, soluble protein after heating vs DMSO (PISA); higher = thermal stabilisation; K562 cells, 10 uM, 30 min; active = over 0.2 and 3.5 SD of the protein, either way, in both replicates (recomputed)
# erlotinib = compound: C#Cc1cccc(Nc2ncnc3cc(OCCOC)c(OCCOC)cc23)c1 [erlotinib]
# Summary of the method: (§1)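 Thermal stability values are relative to control samples and come from duplicates. They are expressed as log2 fold changes. For measurement, K562 cells (2×10^6 cells/mL) received 10 μM compound for 30 min, and aliquots were heated for 3 min over 48°C-58°C, pooled, and extracted at 4°C in PBS with 0.5% NP-40. Soluble protein, the supernatant after 21,000xg for 90 min, was quantified by TMTpro 16plex LC-MS/MS with equalised channel sums.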
# [1] = compound: C/C(=N\NC(=O)C1=CC(=CC=C1)S(=O)(=O)N2CCOCC2)/C3=C(C=CC(=C3)Cl)O
# Summary of the method: as §1
# [2] = compound: C1=CC(=C(C=C1Cl)C2=NC3=NC=CN=C3C(=N2)NC4=CC=NC=C4)F
# Summary of the method: as §1
# [3] = compound: C1=CC(=CC=C1C2=NC3=C(N2)C=C(C=C3)C(=O)N)OC4=CC=C(C=C4)Cl
# Summary of the method: as §1
# [4] = compound: C1=CC2=C(C=CC(=C2)/C=C\3/C(=O)NC(=NCC4=CC=CS4)S3)N=C1
# Summary of the method: as §1
# [5] = compound: C1=CC2=NC=CN=C2C=C1/C=C/3\C(=O)NC(=O)S3
# Summary of the method: as §1
# [6] = compound: C1=CC=C(C=C1)C2=NC(=C(N2)C3=CC=NC=C3)C4=CC(=C(C=C4)Cl)O
# Summary of the method: as §1
# [7] = compound: C1=CC=C2C(=C1)C3=NNC4=CC=CC(=C43)C2=O
# Summary of the method: as §1
# [8] = compound: C1CCN(C1)C(=O)NC2=CC=CC(=C2)NC3=NC=C(C(=N3)NCCC4=CN=CN4)Br
# Summary of the method: as §1
# [9] = compound: C1CN(CCC1(CC2=CC=C(C=C2)Cl)N)C3=NC=NC4=C3C=CN4
# Summary of the method: as §1
Target,log2 fold change (erlotinib),log2 fold change [1],log2 fold change [2],log2 fold change [3],log2 fold change [4],log2 fold change [5],log2 fold change [6],log2 fold change [7],log2 fold change [8],log2 fold change [9]
RAD21 (UniProt O60216),inactive: -0.042,inactive: 0.077,inactive: -0.004,inactive: 0.024,inactive: -0.024,inactive: 0.007,inactive: -0.056,inactive: -0.091,inactive: -0.049,inactive: 0.01
RAB11B (UniProt Q15907),inactive: 0.014,inactive: -0.077,inactive: 0.018,inactive: -0.011,inactive: -0.032,inactive: 0.032,inactive: -0.058,inactive: -0.038,inactive: 0.08,inactive: 0.081
RABAC1 (UniProt Q9UI14),inactive: 0.021,inactive: 0.043,inactive: 0.099,inactive: -0.007,inactive: -0.053,inactive: 0.002,inactive: -0.022,inactive: -0.128,inactive: 0.061,inactive: 0.208
RB1CC1 (UniProt Q8TDY2),inactive: 0.119,inactive: -0.066,inactive: 0.102,inactive: 0.046,inactive: 0.211,inactive: -0.07,inactive: 0.015,inactive: 0.03,inactive: -0.024,inactive: 0.022
RAB9A (UniProt P51151),inactive: 0.037,inactive: 0.05,inactive: 0.017,inactive: 0.016,inactive: 0.046,inactive: -0.022,inactive: -0.005,inactive: -0.01,inactive: 0.017,inactive: 0.056
RBM27 (UniProt Q9P2N5),inactive: 0.034,inactive: 0.079,inactive: 0.003,inactive: 0.022,inactive: -0.039,inactive: -0.01,inactive: -0.067,inactive: 0.022,inactive: -0.061,inactive: -0.128
RBBP5 (UniProt Q15291),inactive: 0.004,inactive: -0.066,inactive: -0.004,inactive: -0.021,inactive: -0.06,inactive: 0.06,inactive: -0.016,inactive: -0.053,inactive: 0.024,inactive: 0.083
RABEP1 (UniProt Q15276),inactive: 0.079,inactive: -0.037,inactive: 0.004,inactive: -0.015,inactive: 0.064,inactive: -0.016,inactive: 0.034,inactive: -0.018,inactive: -0.025,inactive: 0.013
RABGGTA (UniProt Q92696),inactive: 0.068,inactive: 0.018,inactive: 0.065,inactive: 0.001,inactive: 0.063,inactive: 0.025,inactive: 0.036,inactive: 0.043,inactive: 0.005,inactive: 0.122
RAB7A (UniProt P51149),inactive: 0.009,inactive: 0.006,inactive: 0.037,inactive: -0.025,inactive: -0.009,inactive: -0.001,inactive: 0.02,inactive: -0.018,inactive: 0.031,inactive: 0.051
RBBP4 (UniProt Q09028),inactive: -0.01,inactive: -0.011,inactive: -0.006,inactive: 0.001,inactive: 0.037,inactive: -0.011,inactive: 0.058,inactive: -0.023,inactive: -0.005,inactive: 0.013
RAB4B isoform 2 (UniProt P61018),inactive: 0.014,inactive: 0.034,inactive: 0,inactive: -0.01,inactive: 0.049,inactive: 0.046,inactive: -0.04,inactive: 0.001,inactive: 0.032,inactive: 0.065
RAB3A (UniProt P20336),inactive: -0.018,inactive: 0,inactive: 0.15,inactive: 0.023,inactive: -0.028,inactive: 0,inactive: -0.03,inactive: -0.004,inactive: 0.027,inactive: -0.013
RAB3IL1 (UniProt E9PK89),inactive: -0.238,inactive: -0.055,inactive: 0.116,inactive: -0.001,inactive: 0.058,inactive: 0.104,inactive: -0.028,inactive: 0.197,inactive: -0.162,inactive: 0.004
RAB11A (UniProt P62491),inactive: 0.048,inactive: -0.035,inactive: 0.22,inactive: 0.002,inactive: 0.037,inactive: 0.04,inactive: -0.013,inactive: 0.027,inactive: 0.028,inactive: 0.115
RBBP7 isoform 2 (UniProt Q16576),inactive: -0.027,inactive: 0.049,inactive: -0.012,inactive: -0.005,inactive: -0.006,inactive: -0.019,inactive: -0.02,inactive: 0.006,inactive: 0.026,inactive: -0.004
RANBP1 (UniProt P43487),inactive: -0.04,inactive: 0.026,inactive: 0.062,inactive: -0.024,inactive: -0.053,inactive: 0.077,inactive: -0.048,inactive: -0.044,inactive: 0.011,inactive: 0.038
RABGAP1 (UniProt Q9Y3P9),inactive: 0.024,inactive: 0.032,inactive: 0.003,inactive: 0.022,inactive: 0.019,inactive: 0.071,inactive: -0.016,inactive: -0.004,inactive: -0.023,inactive: -0.037
RAD23A (UniProt P54725),inactive: 0.023,inactive: -0.05,inactive: -0.034,inactive: 0.004,inactive: -0.011,inactive: 0.029,inactive: -0.055,inactive: 0.043,inactive: 0.028,inactive: 0.02
RAB3C (UniProt Q96E17),inactive: -0.007,inactive: 0.063,inactive: 0.008,inactive: -0.059,inactive: -0.02,inactive: -0.066,inactive: -0.022,inactive: -0.053,inactive: 0.009,inactive: 0.061
RAB23 (UniProt Q9ULC3),inactive: 0.066,inactive: -0.036,inactive: 0.074,inactive: -0.012,inactive: -0.058,inactive: 0.061,inactive: 0.021,inactive: -0.004,inactive: 0.078,inactive: 0.053
RBFOX2 isoform 8 (UniProt O43251),inactive: 0.04,inactive: -0.119,inactive: -0.122,inactive: -0.015,inactive: -0.108,inactive: -0.098,inactive: -0.169,inactive: 0.069,inactive: 0.093,inactive: 0.064
RAB5A (UniProt P20339),inactive: -0.013,inactive: 0.105,inactive: 0.071,inactive: 0.06,inactive: -0.126,inactive: 0.023,inactive: -0.015,inactive: 0.038,inactive: -0.004,inactive: 0.168
RAD51 (UniProt Q06609),inactive: 0.29,inactive: 0.06,inactive: 0.044,inactive: 0.032,inactive: 0.067,inactive: 0.017,inactive: -0.025,inactive: -0.032,inactive: -0.014,inactive: 0.013
RAB5IF isoform 5 (UniProt Q9BUV8),inactive: 0.071,inactive: 0.093,inactive: 0.098,inactive: 0.055,inactive: -0.061,inactive: 0.112,active: 0.373,inactive: 0.036,inactive: 0.027,inactive: 0.267
RACK1 (UniProt D6RF23),inactive: 0.085,inactive: -0.129,inactive: -0.106,inactive: -0.049,inactive: 0.343,inactive: 0.045,inactive: -0.294,inactive: 0.151,inactive: 0.247,inactive: -0.166
RAN (UniProt P62826),inactive: 0,inactive: 0,inactive: 0.054,inactive: -0.023,inactive: 0,inactive: 0.005,inactive: -0.046,inactive: -0.021,inactive: 0.052,inactive: 0.035
RAB1B (UniProt Q9H0U4),inactive: 0.048,inactive: -0.063,inactive: 0.038,inactive: -0.033,inactive: 0.066,inactive: 0.083,inactive: 0.07,inactive: -0.046,inactive: 0.03,inactive: 0.093
RAB35 (UniProt Q15286),inactive: 0.019,inactive: -0.002,inactive: 0.036,inactive: 0.008,inactive: -0.019,inactive: 0.043,inactive: -0.011,inactive: -0.034,inactive: 0.002,inactive: 0.057
RBBP5 isoform 2 (UniProt Q15291),inactive: -0.354,inactive: 0,inactive: -0.063,inactive: 0.18,inactive: 0.189,inactive: 0.045,inactive: 0.066,inactive: -0.115,inactive: 0.042,inactive: -0.122

# Looked up one by one from the entries so far, 2 records:
Target,log2 fold change (erlotinib),log2 fold change [1],log2 fold change [2],log2 fold change [3],log2 fold change [4],log2 fold change [5],log2 fold change [6],log2 fold change [7],log2 fold change [8],log2 fold change [9]
RBM27 (UniProt Q9P2N5),inactive: 0.034,inactive: 0.079,inactive: 0.003,inactive: 0.022,inactive: -0.039,inactive: -0.01,inactive: -0.067,inactive: 0.022,inactive: -0.061,inactive: -0.128
RABGAP1 (UniProt Q9Y3P9),inactive: 0.024,inactive: 0.032,inactive: 0.003,inactive: 0.022,inactive: 0.019,inactive: 0.071,inactive: -0.016,inactive: -0.004,inactive: -0.023,inactive: -0.037
